According to article PMC7829492:
Results are given in words; binding and its absence hold for the method and conditions named. In cells and extracts the contact can be indirect. These calls come from enrichment with a bait or labelling near it, and not all partners need be listed. Where a sequence is shown, tags or fusion partners need not be part of it. Each block holds one binder with its values, some of them ahead of it.

What was measured:
[1] = target: T1, FLAG-tagged human C2CD4B (C2 calcium dependent domain containing protein 4B) (human) (UniProt A6NLJ0); assay: affinity purification with mass spectrometry; immunoprecipitation from MIN6 cells transfected in duplicate with FLAG-tagged human C2CD4A or C2CD4B; FLAG tag-only plasmid as negative control; hits normalised to the negative control and ranked by abundance
T1 sequence: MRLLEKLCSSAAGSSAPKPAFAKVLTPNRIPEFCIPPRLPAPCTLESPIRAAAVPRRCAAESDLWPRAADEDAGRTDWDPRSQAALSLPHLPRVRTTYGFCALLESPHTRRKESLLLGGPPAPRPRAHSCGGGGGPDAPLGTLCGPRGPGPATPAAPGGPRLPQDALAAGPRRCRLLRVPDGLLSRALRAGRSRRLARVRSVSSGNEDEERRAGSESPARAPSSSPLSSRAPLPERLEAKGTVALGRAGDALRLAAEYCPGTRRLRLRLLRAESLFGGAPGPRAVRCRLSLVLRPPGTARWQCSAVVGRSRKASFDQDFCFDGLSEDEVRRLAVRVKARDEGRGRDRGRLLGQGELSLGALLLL

[2] = target: T2, FLAG-tagged human C2CD4A (C2 calcium dependent domain containing protein 4A) (human) (UniProt Q8NCU7); assay: as above
T2 sequence: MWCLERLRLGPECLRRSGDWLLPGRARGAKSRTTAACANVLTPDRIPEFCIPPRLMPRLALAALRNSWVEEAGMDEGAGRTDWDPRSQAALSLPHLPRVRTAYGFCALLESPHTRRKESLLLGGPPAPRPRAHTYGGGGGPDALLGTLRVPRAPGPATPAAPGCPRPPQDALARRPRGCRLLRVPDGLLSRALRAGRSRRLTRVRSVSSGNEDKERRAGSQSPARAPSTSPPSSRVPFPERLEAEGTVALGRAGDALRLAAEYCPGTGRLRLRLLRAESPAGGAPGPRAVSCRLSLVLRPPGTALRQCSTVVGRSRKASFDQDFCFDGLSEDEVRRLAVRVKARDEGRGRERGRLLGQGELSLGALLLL

binding [1]: binds | binding [2]: binds
B1: Receptor-type tyrosine-protein phosphatase-like N (protein, UniProt Q60673 38-979)
chain: ISAHGCLFDRRLCSHLEVCIQDGLFGQCQAGVGQARPLLQVTSPVLQRLQGVLRQLMSQGLSWHDDLTQHVISQEMERIPRLRPPEPHPRDRSGLVPRKPGPAGELLTQGNPTGSSPAAQGFPRPAGGRSWGGSPLSSLQAELLPPLLEHLLMPPQPPHPALTYEPALLQPYLFHQFGSRDGSRGSESSSGVVGVGHLSKAEGPALFSRSASKAILGTHSGHSFGDLTGPSPAQLFQDSGLLYMAQELPVPGRARAPRLPENGGNRAEDSSEGHEEEVLGGRGEKSPPQAAQPELSLQRLTAVLAGYGVELRQLTPEQFSTLLTLLQLLPKGTGRNLEGAVNVGGADVKKTIQQMQRGDPAEALPPTPSLPGYLTASPASSEVQQVLSPGFPEPPHTPSPLGSSSVLLEKKSPLGQSQPTVVGRPSARPSAEEYGYIVTDQKPLSLVAGVRLLEILAEHVHMSSGSFINISVVGPAVTFRIRHNEQNLSLADVTQQAGLVKSELEAQTGLQILQTGVGQREEAAEVLPRQAHGISPMRSVLLTLVALAGVAGLLVALAVALCMRHHSRQRDKERLAALGPEGAHGDTTFEYQDLCRQHMATKSLFNRAEGQPEPSRVSSVSSQFSDAAQASPSSHSSTPSWCEEPAQANMDISTGHMILAYMEDHLRNRDRLAKEWQALCAYQAEPNTCAAAQDESNIKKNRHPDFLPYDHARIKLKVESSPSRSDYINASPIIEHDPRMPAYIATQGPLSHTIADFWQMVWESGCTVIVMLTPLVEDGVKQCDRYWPDEGSSLYHVYEVNLVSEHIWCEDFLVRSFYLKNLQTQETRTLTQFHFLSWPAEGTPASTRPLLDFRRKVNKCYRGRSCPIIVHCSDGAGRTGTYILIDMVLNRMAKGVKEIDIAATLEHVRDQRPGLVRSKDQFEFALTAVAEEVNAILKALPQ

binding [1]: binds | binding [2]: binds
B2: PTPRN2 (phogrin/IA-2β) (protein, UniProt P80560 28-1001)
chain: RGRQLPGRLGCLFEDGLCGSLETCVNDGVFGRCQKVPVMDTYRYEVPPGALLHLKVTLQKLSRTGFTWQDDYTQRVIAQELANLPKAYLWHGEASGPARSLQQNADNEKWFSLEREVALAKTLRRYLPYLELLSQTPTANAHSRIDHETRPAKGEDSSPENILTYVAHTSALTYPPATRAKYPDNLLRPFSRLQPDELSPKVDGDIDKQKLIAALGAYTAQRLPGENDPEPRYLVHGSARAPRPFSATALSQRWPPPPGDAKDSPSMDDDTLLQSLLKDLQQNSEVDRLGPLKEEKADSVAGAIQSDPAEGSQESHGRGAEGQPREQTDAPETMLQDHRLSEVDDPVYKEVNRLSFQLGDLLKDYGSPLLPEGPLLEKSSREEIKKSEQPEEVLSSEEETAGVEHVRSRTYSKDLFERKPNSEPQPRRLEDQFQNRAPELWEDEESLKLAAQGPPSGGLQLEVQPSEEQQGYILTGNNPLSPEKGKQLMDQVAHILRVPSSFFADIKVLGPAVTFKVSANIQNMTTADVIKAAADNKDQLEKATGLTILQSGIRPKGKLKLLPHQEEQEDSTKFILLTFLSIACILGVLLASSLAYCLRHNSHYKLKDKLSGLGADPSADATEAYQELCRQRMAIRPQDRSEGPHTSRINSVSSQFSDGPMPSPSARSSTSSWSEEPVQSNMDISTGHMILAYMEDHLKNKNRLEKEWEALCAYQAEPNSSLVAQREENAPKNRSLAVLTYDHSRILLKSQNSHGSSDYINASPIMDHDPRNPAYIATQGPLPATVADFWQMVWESGCAVIVMLTPLSENGVRQCHHYWPDEGSNLYHVYEVNLVSEHIWCQDFLVRSFYLKNLQTNETRTVTQFHFLSWYDQGVPSSTRSLLDFRRKVNKCYRGRSCPIIVHCSDGAGRSGTYVLIDMVLNKMAKGAKEIDIAATLEHLRDQRPGMVQTKEQFEFALTAVAEEVNAILKALPQ
